# Reference: the supplement of paper PMC8728848
# Some of the results follow.
# What was measured:
# Test in all cases: glycan array binding signal (z-score within array); higher = stronger binding
# Conditions in all cases: glycan notation: IUPAC condensed, linker removed
# [1] = target: Gal(b1-4)Glc
# In short: (§1)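 Glycan array data came from 3228 arrays in the Consortium for Functional Glycomics database, and only arrays with an available protein sequence were kept. Glycan names were put into IUPAC-condensed notation, and columns mapping to the same glycan were averaged. The binding signal is a within-array Z-score, averaged across arrays of one protein sequence run at different concentrations or buffers and across linkers. A negative Z-score can be read as non-binding.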
# [2] = target: Gal(b1-4)Glc6S
# In short: as §1
# [3] = target: Gal(b1-4)GlcNAc
# In short: as §1
# [4] = target: Gal(b1-4)GlcNAc(a1-6)Gal(b1-4)GlcNAc
# In short: as §1
# [5] = target: Gal(b1-4)GlcNAc(b1-2)Man
# In short: as §1
# [6] = target: Gal(b1-4)GlcNAc(b1-2)Man(a1-3)Man(b1-4)GlcNAc(b1-4)GlcNAc
# In short: as §1
# [7] = target: Gal(b1-4)GlcNAc(b1-2)Man(a1-3)[Gal(b1-4)GlcNAc(b1-2)Man(a1-6)]Man(b1-4)GlcNAc(b1-4)GlcNAc
# In short: as §1
# [8] = target: Gal(b1-4)GlcNAc(b1-2)Man(a1-3)[Gal(b1-4)GlcNAc(b1-2)Man(a1-6)]Man(b1-4)GlcNAc(b1-4)[Fuc(a1-6)]GlcNAc
# In short: as §1
# [9] = target: Gal(b1-4)GlcNAc(b1-2)Man(a1-3)[Gal(b1-4)GlcNAc(b1-2)Man(a1-6)][Gal(b1-4)GlcNAc(b1-4)]Man(b1-4)GlcNAc(b1-4)[Fuc(a1-6)]GlcNAc
# In short: as §1
# [10] = target: Gal(b1-4)GlcNAc(b1-2)Man(a1-3)[Gal(b1-4)GlcNAc(b1-2)Man(a1-6)][GlcNAc(b1-4)]Man(b1-4)GlcNAc(b1-4)[Fuc(a1-6)]GlcNAc
# In short: as §1
# [11] = target: Gal(b1-4)GlcNAc(b1-2)Man(a1-3)[GlcNAc(b1-2)Man(a1-6)]Man(b1-4)GlcNAc(b1-4)GlcNAc
# In short: as §1
# [12] = target: Gal(b1-4)GlcNAc(b1-2)Man(a1-3)[GlcNAc(b1-4)][Gal(b1-4)GlcNAc(b1-2)Man(a1-6)]Man(b1-4)GlcNAc(b1-4)GlcNAc
# In short: as §1
# [13] = target: Gal(b1-4)GlcNAc(b1-2)Man(a1-3)[Man(a1-6)]Man(b1-4)GlcNAc(b1-4)GlcNAc
# In short: as §1
# [14] = target: Gal(b1-4)GlcNAc(b1-2)Man(a1-6)Man(b1-4)GlcNAc(b1-4)GlcNAc
# In short: as §1
# [15] = target: Gal(b1-4)GlcNAc(b1-2)Man(a1-6)[GlcNAc(b1-2)Man(a1-3)]Man(b1-4)GlcNAc(b1-4)GlcNAc
# In short: as §1
# [16] = target: Gal(b1-4)GlcNAc(b1-2)Man(a1-6)[Man(a1-3)]Man(b1-4)GlcNAc(b1-4)GlcNAc
# In short: as §1
# [17] = target: Gal(b1-4)GlcNAc(b1-2)[Gal(b1-4)GlcNAc(b1-4)]Man(a1-3)[Gal(b1-4)GlcNAc(b1-2)Man(a1-6)]Man(b1-4)GlcNAc(b1-4)GlcNAc
# In short: as §1
# [18] = target: Gal(b1-4)GlcNAc(b1-2)[Gal(b1-4)GlcNAc(b1-4)]Man(a1-3)[Gal(b1-4)GlcNAc(b1-2)[Gal(b1-4)GlcNAc(b1-6)]Man(a1-6)]Man(b1-4)GlcNAc(b1-4)GlcNAc
# In short: as §1
# [19] = target: Gal(b1-4)GlcNAc(b1-2)[Gal(b1-4)GlcNAc(b1-4)]Man(a1-3)[GlcNAc(b1-4)][Gal(b1-4)GlcNAc(b1-2)Man(a1-6)]Man(b1-4)GlcNAc(b1-4)GlcNAc
# In short: as §1
# [20] = target: Gal(b1-4)GlcNAc(b1-2)[Gal(b1-4)GlcNAc(b1-4)]Man(a1-3)[GlcNAc(b1-4)][Gal(b1-4)GlcNAc(b1-2)[Gal(b1-4)GlcNAc(b1-6)]Man(a1-6)]Man(b1-4)GlcNAc(b1-4)GlcNAc
# In short: as §1
# [21] = target: Gal(b1-4)GlcNAc(b1-2)[Gal(b1-4)GlcNAc(b1-6)]Man(a1-6)[Gal(b1-4)GlcNAc(b1-2)Man(a1-3)]Man(b1-4)GlcNAc(b1-4)GlcNAc
# In short: as §1
# [22] = target: Gal(b1-4)GlcNAc(b1-2)[Gal(b1-4)GlcNAc(b1-6)]Man(a1-6)[Gal(b1-4)GlcNAc(b1-2)Man(a1-3)]Man(b1-4)GlcNAc(b1-4)[Fuc(a1-6)]GlcNAc
# In short: as §1
# [23] = target: Gal(b1-4)GlcNAc(b1-2)[Gal(b1-4)GlcNAc(b1-6)]Man(a1-6)[GlcNAc(b1-4)][Gal(b1-4)GlcNAc(b1-2)Man(a1-3)]Man(b1-4)GlcNAc(b1-4)GlcNAc
# In short: as §1
# [24] = target: Gal(b1-4)GlcNAc(b1-2)[Gal(b1-4)GlcNAc(b1-6)]Man(a1-6)[GlcNAc(b1-4)][Gal(b1-4)GlcNAc(b1-2)[Gal(b1-4)GlcNAc(b1-4)]Man(a1-3)]Man(b1-4)GlcNAc(b1-4)[Fuc(a1-6)]GlcNAc
# In short: as §1
# [25] = target: Gal(b1-4)GlcNAc(b1-3)Gal(b1-3)GalNAc
# In short: as §1
# [26] = target: Gal(b1-4)GlcNAc(b1-3)Gal(b1-3)GlcNAc
# In short: as §1
# [27] = target: Gal(b1-4)GlcNAc(b1-3)Gal(b1-4)Glc
# In short: as §1
# [28] = target: Gal(b1-4)GlcNAc(b1-3)Gal(b1-4)GlcNAc
# In short: as §1
# [29] = target: Gal(b1-4)GlcNAc(b1-3)Gal(b1-4)GlcNAc(b1-2)Man(a1-3)[Gal(b1-4)GlcNAc(b1-3)Gal(b1-4)GlcNAc(b1-2)Man(a1-6)]Man(b1-4)GlcNAc(b1-4)GlcNAc
# In short: as §1
# [30] = target: Gal(b1-4)GlcNAc(b1-3)Gal(b1-4)GlcNAc(b1-2)Man(a1-3)[Gal(b1-4)GlcNAc(b1-3)Gal(b1-4)GlcNAc(b1-2)Man(a1-6)]Man(b1-4)GlcNAc(b1-4)[Fuc(a1-6)]GlcNAc
# In short: as §1
# [31] = target: Gal(b1-4)GlcNAc(b1-3)Gal(b1-4)GlcNAc(b1-2)[Gal(b1-4)GlcNAc(b1-3)Gal(b1-4)GlcNAc(b1-6)]Man(a1-6)[Gal(b1-4)GlcNAc(b1-3)Gal(b1-4)GlcNAc(b1-2)Man(a1-3)]Man(b1-4)GlcNAc(b1-4)GlcNAc
# In short: as §1
# [32] = target: Gal(b1-4)GlcNAc(b1-3)Gal(b1-4)GlcNAc(b1-2)[Gal(b1-4)GlcNAc(b1-3)Gal(b1-4)GlcNAc(b1-6)]Man(a1-6)[Gal(b1-4)GlcNAc(b1-3)Gal(b1-4)GlcNAc(b1-2)Man(a1-3)]Man(b1-4)GlcNAc(b1-4)[Fuc(a1-6)]GlcNAc
# In short: as §1
# [33] = target: Gal(b1-4)GlcNAc(b1-3)Gal(b1-4)GlcNAc(b1-3)Gal(b1-4)GlcNAc
# In short: as §1
# [34] = target: Gal(b1-4)GlcNAc(b1-3)Gal(b1-4)GlcNAc(b1-3)Gal(b1-4)GlcNAc(b1-2)Man(a1-3)[Gal(b1-4)GlcNAc(b1-3)Gal(b1-4)GlcNAc(b1-3)Gal(b1-4)GlcNAc(b1-2)Man(a1-6)]Man(b1-4)GlcNAc(b1-4)GlcNAc
# In short: as §1
# [35] = target: Gal(b1-4)GlcNAc(b1-3)Gal(b1-4)GlcNAc(b1-3)Gal(b1-4)GlcNAc(b1-2)Man(a1-3)[Gal(b1-4)GlcNAc(b1-3)Gal(b1-4)GlcNAc(b1-3)Gal(b1-4)GlcNAc(b1-2)Man(a1-6)]Man(b1-4)GlcNAc(b1-4)[Fuc(a1-6)]GlcNAc
# In short: as §1
# [36] = target: Gal(b1-4)GlcNAc(b1-3)Gal(b1-4)GlcNAc(b1-3)Gal(b1-4)GlcNAc(b1-2)[Gal(b1-4)GlcNAc(b1-3)Gal(b1-4)GlcNAc(b1-3)Gal(b1-4)GlcNAc(b1-6)]Man(a1-6)[Gal(b1-4)GlcNAc(b1-3)Gal(b1-4)GlcNAc(b1-3)Gal(b1-4)GlcNAc(b1-2)Man(a1-3)]Man(b1-4)GlcNAc(b1-4)[Fuc(a1-6)]GlcNAc
# In short: as §1
# [37] = target: Gal(b1-4)GlcNAc(b1-3)Gal(b1-4)GlcNAc(b1-3)Gal(b1-4)GlcNAc(b1-3)Gal(b1-4)GlcNAc(b1-2)Man(a1-3)[Gal(b1-4)GlcNAc(b1-3)Gal(b1-4)GlcNAc(b1-3)Gal(b1-4)GlcNAc(b1-3)Gal(b1-4)GlcNAc(b1-2)Man(a1-6)]Man(b1-4)GlcNAc(b1-4)GlcNAc
# In short: as §1
binder,measurement,setting,value
PX14375A-pdi-503-28-503 (Parabacteroides distasonis) (protein) PLGSPEAGDISEERQAFLRLTAVYSVMKDFRYTWSMQCFGDVLSNDATYSGSSNDAQTFTLLENYQYQADHTEILNKYRYSYQCINKANLFIRDMEMADDALFSKYDKEQMIGEAKFIRAYTYFELVKTFGGVPCYTGVLDLDHERLGRASVEEIYSVIEQDLNDAVSVLPKKSEVANYESSYAGRITKGAAIAMQTRIYLYEKKYDEVKKAFEKFQNECGGEYSLVAPEDYTWQFSLDGEHCSSSILEVNMYNSSTQSSYNVNNGNRHVLMSMPRNMTIGFGCAQPTQALADAYDAEGDVIRKKTTLLSTEEAIEIETAAKGDVAPVTDDRTGWYNRKLYLAPGQREENRGNNQPTNLRLIRLAEVYLNYAEACYFSGDIANAQKYLNEVRSHVNLAPKNHTGSQLFEDIMNERHLEFGMEGFRFFDVVRVGWGEKVFNGTKKAEFGAKTPFSAGAEVLPIPQTEIDISDGLITN,glycan array binding signal (z-score),[1],-0.065
same,glycan array binding signal (z-score),[2],0.523
same,glycan array binding signal (z-score),[3],-0.156
same,glycan array binding signal (z-score),[4],-0.261
same,glycan array binding signal (z-score),[5],-0.034
same,glycan array binding signal (z-score),[6],0.165
same,glycan array binding signal (z-score),[7],-0.224
same,glycan array binding signal (z-score),[8],0.093
same,glycan array binding signal (z-score),[9],0.362
same,glycan array binding signal (z-score),[10],-0.722
same,glycan array binding signal (z-score),[11],-0.186
same,glycan array binding signal (z-score),[12],-0.321
same,glycan array binding signal (z-score),[13],-0.824
same,glycan array binding signal (z-score),[14],-0.148
same,glycan array binding signal (z-score),[15],1.37
same,glycan array binding signal (z-score),[16],-0.741
same,glycan array binding signal (z-score),[17],-0.496
same,glycan array binding signal (z-score),[18],-0.685
same,glycan array binding signal (z-score),[19],-0.167
same,glycan array binding signal (z-score),[20],-0.171
same,glycan array binding signal (z-score),[21],0.103
same,glycan array binding signal (z-score),[22],0.011
same,glycan array binding signal (z-score),[23],-0.235
same,glycan array binding signal (z-score),[24],-0.729
same,glycan array binding signal (z-score),[25],-0.168
same,glycan array binding signal (z-score),[26],-0.513
same,glycan array binding signal (z-score),[27],-0.348
same,glycan array binding signal (z-score),[28],-0.064
same,glycan array binding signal (z-score),[29],5.38
same,glycan array binding signal (z-score),[30],0.658
same,glycan array binding signal (z-score),[31],0.548
same,glycan array binding signal (z-score),[32],0.187
same,glycan array binding signal (z-score),[33],0.128
same,glycan array binding signal (z-score),[34],2.49
same,glycan array binding signal (z-score),[35],0.437
same,glycan array binding signal (z-score),[36],0.285
same,glycan array binding signal (z-score),[37],-0.168

# Some of the entries above, reformatted.
binder	measurement	setting	value
PX14375A-pdi-503-28-503 (Parabacteroides distasonis) (protein) PLGSPEAGDISEERQAFLRLTAVYSVMKDFRYTWSMQCFGDVLSNDATYSGSSNDAQTFTLLENYQYQADHTEILNKYRYSYQCINKANLFIRDMEMADDALFSKYDKEQMIGEAKFIRAYTYFELVKTFGGVPCYTGVLDLDHERLGRASVEEIYSVIEQDLNDAVSVLPKKSEVANYESSYAGRITKGAAIAMQTRIYLYEKKYDEVKKAFEKFQNECGGEYSLVAPEDYTWQFSLDGEHCSSSILEVNMYNSSTQSSYNVNNGNRHVLMSMPRNMTIGFGCAQPTQALADAYDAEGDVIRKKTTLLSTEEAIEIETAAKGDVAPVTDDRTGWYNRKLYLAPGQREENRGNNQPTNLRLIRLAEVYLNYAEACYFSGDIANAQKYLNEVRSHVNLAPKNHTGSQLFEDIMNERHLEFGMEGFRFFDVVRVGWGEKVFNGTKKAEFGAKTPFSAGAEVLPIPQTEIDISDGLITN	glycan array binding signal (z-score)	[14]	-0.148
same	glycan array binding signal (z-score)	[15]	1.37
